# According to PubChem BioAssay AID485314 (National Center for Advancing Translational Sciences (NCATS), 2010):
# Hit rate of the full screen: of about 340,000 compounds, about 4,500 (1.3%) were called active. The shares of active, inactive and inconclusive entries below differ from those in the screen. Calls follow the shape of the dose curve; as a rule, active = well fitted inhibition curve with a large enough effect; inconclusive = small, poorly fitted or top-dose-only effect, or another doubt; inactive = no such curve, though single readings can be large or run the other way. Potencies beside an inconclusive call are fits to weak or partial responses and may not hold up.
# Molecular target: DNA polymerase beta (Homo sapiens) (UniProt P06746)
# Assay: qHTS Assay for Inhibitors of DNA Polymerase Beta
# Details: Pol beta primer extension/strand displacement, fluorescence kinetic; activity change, negative = inhibition: at 114 µM (top of the series)
# In short: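 Pol beta (10 nM) was preincubated with compound for 15 min at room temperature. The reaction was then started with 50 nM substrate and read immediately and after a further 10 min at room temperature.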
# % is scaled to controls: 0 for no effect and ±100 for the full control effect; potency is read from the fitted curve at half-maximal effect.
Structure (SMILES),Potency,"activity change, negative = inhibition"
Nc1[nH]c(=S)nc2nc(-c3ccccc3)c(-c3ccccc3)nc12,active: 22.4 µM,–
Cc1cccc(N2CCN(C(=O)C(Cc3ccccc3)n3cccc3)CC2)c1C (stereo not drawn),"inconclusive: 79.4 µM [inhibitor, partial curve, poor fit]",–
O=c1c2c(-c3ccccc3)csc2nc2c3ccccc3c(NCCN3CCOCC3)nn12,"inconclusive: 5.01 µM [inhibitor, full curve]",–
Nc1ncc(Br)cc1N=Cc1ccccc1,active: 39.8 µM,–
CC(C)c1ccc(NC(=O)Cn2nnc(C(=O)NCc3ccco3)c2N)cc1,"inconclusive: 89.1 µM [inhibitor, single point]",–
CCc1ccccc1NC(=O)C(CC)Sc1ncnc2c1sc1ccccc12 (stereo not drawn),"inconclusive: 89.1 µM [inhibitor, single point]",–
O=C(NCCCN1CCOCC1)C(=O)NCC1OCCN1S(=O)(=O)c1cc(F)ccc1F (stereo not drawn),"inconclusive: 7.94 µM [inhibitor, full curve]",–
Cc1ccc(N=C2NC(=O)/C(=C/C=C/c3ccco3)S2)cc1,active: 22.4 µM,–
COc1ccc(OC)c(C(Nc2ccccc2)P(=O)(OC(C)C)OC(C)C)c1 (stereo not drawn),–,inactive: 9.82%
Fc1cccc2sc(Nc3nnc(-c4ccco4)o3)nc12,active: 17.8 µM,–
Cc1nc2ccc(C(=O)N/N=C/c3ccc(O)cc3)cc2[nH]1,active: 17.8 µM,–
Cc1ccc(NC(=O)C(c2ccc(Cl)cc2)N2CCCCC2)cc1 (stereo not drawn),–,inactive: 9.78%
Cc1oc2cc(O)cc(O)c2c(=O)c1-c1ccc2c(c1)OCCCO2,"inconclusive: 39.8 µM [inhibitor, single point]",–
O=C1CSC(=S)N1/N=C/c1ccc(O)c([N+](=O)[O-])c1,active: 17.8 µM,–
Cc1cc(SCC(=O)NN)c2cc(Br)ccc2n1,–,inconclusive: -101% [inhibitor]
C=C(C)CSc1cc(C)c(C#N)c2nc3ccccc3n12,"inconclusive: 63.1 µM [inhibitor, single point]",–
CCC1CSC(=Nc2ccc(C)cc2)N1C(=O)CN1C(=O)NC2(CCCC2)C1=O (stereo not drawn),"inconclusive: 15.8 µM [inhibitor, partial curve]",–
COc1cccc(C(=O)NC2CC3CCCC(C2)N3CC(=O)Nc2ccccc2)c1 (stereo not drawn),active: 39.8 µM,–
O=C(Nc1ccc(Cl)cc1F)c1oc(=O)c2ccccc2c1-c1ccccc1,"inconclusive: 0.282 µM [inhibitor, full curve, poor fit]",–
Fc1ccc(C2CC(c3cccs3)=NN2c2ccccc2)cc1 (stereo not drawn),–,inactive: -0.833%
Cc1ccnc(NS(=O)(=O)c2ccc(NC(=O)C(C)(C)Oc3ccc(Cl)cc3)cc2)n1,"inconclusive: 31.6 µM [inhibitor, partial curve]",–
NC(=O)CC(NC(=O)Cc1ccc(Br)cc1)c1ccc(NC2CCN(Cc3ccccc3)CC2)c([N+](=O)[O-])c1 (stereo not drawn),active: 44.7 µM,–
CN(C)CCNS(=O)(=O)c1ccc2c3c(cccc13)C(=O)N2,–,inactive: 4.1%

# By substructure: the compounds so far with an aryl methoxy group.
Structure (SMILES),Potency,"activity change, negative = inhibition"
COc1ccc(OC)c(C(Nc2ccccc2)P(=O)(OC(C)C)OC(C)C)c1 (stereo not drawn),–,inactive: 9.82%
COc1cccc(C(=O)NC2CC3CCCC(C2)N3CC(=O)Nc2ccccc2)c1 (stereo not drawn),active: 39.8 µM,–

# Going on with the list:

Structure (SMILES),Potency,"activity change, negative = inhibition"
COc1ccc(Cl)cc1Nc1nnc(-c2ccncc2)s1,–,inconclusive: -58.7% [inhibitor]
O=C(c1ccccc1)N1CCN(C2CCCCCC2)CC1,"inconclusive: 0.631 µM [inhibitor, full curve, poor fit]",–
O=S(=O)(c1ccc(Br)cc1)c1nc(-c2ccccc2)oc1NCc1cccnc1,"inconclusive: 22.4 µM [inhibitor, partial curve, poor fit]",–
COc1ccc(C(=O)Nc2cccnc2Cl)cc1OC,"inconclusive: 0.562 µM [inhibitor, full curve, poor fit]",–
Cc1cc(C)n(Cc2cccc(C(=O)N/N=C/c3cccnc3)c2)n1,"inconclusive: 28.2 µM [inhibitor, full curve]",–
O=C(COc1ccc(Br)cc1Cl)c1ccc[nH]1,"inconclusive: 7.08 µM [inhibitor, partial curve, poor fit]",–
Cc1ccc2nc(Nc3ccc(F)cc3)c3nncn3c2c1,active: 31.6 µM,–
O=C(COC(=O)/C=C/c1cccs1)NC1CC1,"inconclusive: 100 µM [inhibitor, single point]",–
O=C(Nc1c(C(=O)N2CCOCC2)cnn1-c1ccccc1)c1ccccc1F,"inconclusive: 3.98 µM [inhibitor, single point]",–
C/C=C/CSc1nc2c(c(=O)[nH]c(=O)n2C)n1CCC,–,inactive: 0.516%
O=C(NC1CC(=O)N(c2ccc(F)cc2)C1)c1cc2ccccc2o1 (stereo not drawn),–,inactive: -3.14%
O=S(=O)(Nc1cccc(-c2ccc(N3CCCCC3)nn2)c1)c1cccs1,–,inactive: 0.503%
O=C(N/N=C/c1ccc(Br)s1)c1cccc([N+](=O)[O-])c1,"inconclusive: 44.7 µM [inhibitor, partial curve]",–
COc1ccc2c(c1)oc(=O)c1c3ccccc3[nH]c21,active: 22.4 µM,–
CC(=O)c1cccc(-n2c(CCC(=O)O)ccc2-c2cccs2)c1,"inconclusive: 31.6 µM [inhibitor, full curve]",–
COCCn1c(SCC(=O)Nc2ccc(F)c(Cl)c2)nc2c(oc3ccccc32)c1=O,–,inactive: 0.691%
Cc1ccccc1NS(=O)(=O)c1ccc2[nH]cc(C(=O)N3CCCC3)c(=O)c2c1,"inconclusive: 44.7 µM [inhibitor, partial curve]",–
COc1cc(/C=C/c2ccc(O)cc2)cc(OC)c1,–,inactive: -27.1%
C[C@@H](N)C1CCC(C(=O)Nc2ccncc2)CC1 (stereo partly drawn),–,inactive: 9.15% [at 57.1 µM]
CCCn1c(=O)c2sccc2n2c(CCCC(=O)N3CCN(c4ccccc4)CC3)nnc12,–,inactive: 27.9%
Cc1ccc(CSCC(=O)N2CCN(Cc3ccc4c(c3)OCO4)CC2)cc1,"inconclusive: 89.1 µM [inhibitor, single point]",–
Cc1ccc(COc2ccc(/C=N/NC(=O)c3ccc(CN4CCOCC4)cc3)cc2)cc1,"inconclusive: 1.12 µM [inhibitor, full curve, poor fit]",–
CCCCC(CC)C(=O)Nc1cc([N+](=O)[O-])ccc1F (stereo not drawn),"inconclusive: 79.4 µM [inhibitor, single point]",–
COc1cc(NC(=O)CSCc2cnn(-c3ccccc3)c2-n2cccc2)cc(OC)c1,"inconclusive: 70.8 µM [inhibitor, single point]",–
